# Results from patent publication US20250288632A1, “Viral Entry Inhibitors Derived From Botanicals” (priority 2022, published 2025).
# Experiment: Cytotoxicity assay measuring cell proliferation in Vero cells
# Assay type: cell-based
# Conditions: African green monkey, remdesivir
# Experimental: Numbers in parentheses indicate percent inhibition at the highest concentration tested. Cytotoxicity assays measuring the cell proliferation in PBM and Vero cells were performed in parallel to the antiviral assays.
smiles,measurement,value
CCC(CC)COC(=O)[C@H](C)N[P@](=O)(OC[C@H]1O[C@@](C#N)(c2ccc3c(N)ncnn23)[C@H](O)[C@@H]1O)Oc1ccccc1 [Remdesivir],CC50,60.3 µM
